From PubChem BioAssay AID651640 (Broad Institute, 2012)
Screen size: about 350,000 compounds; about 6,000 (1.7%) were called active. This list was built around the results that the source calls inconclusive (neither active nor inactive); the mix of calls is not that of the screen. Rule as the data show it: active = CPE inhibition above about 20% (passing the limit was not always enough); inconclusive = no clear call, values can overlap the other calls; tested in BHK-21 cells.

Assay: protection of cells from dengue 2 killing – plate reader, single concentration, primary screen (AID 651640);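 also: 0% = median of neutral control wells and 100% = median of positive control wells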
Conditions: DENV2-infected cells, cytopathic effect rescue, at 9.99 µM, active compounds read high

| Compound | CPE inhibition |
| --- | --- |
| COCC(=O)N1[C@@H](C#N)[C@@H](c2ccc(C3=CCCCC3)cc2)[C@@H]1CO | active: 24.1% |
| CCCS(=O)(=O)NC(=O)C1(C)CCCN(C(=O)c2c(F)cccc2F)C1 (configuration not stated) | inconclusive: 47.9% |
| Cc1cc(Cl)ccc1OCC(=O)Nc1ccccc1C(=O)N1CCOCC1 | inactive: -1.7% |
| CC(C)CCCN1CCN=C1Nc1ccccc1 | active: 26.7% |
| Cc1c(C)c2ccc(OCC(=O)N[C@@H](Cc3ccccc3)C(=O)O)cc2oc1=O | inconclusive: 29.4% |
| Cc1ccc(OCc2nnc(-c3ccc(Cl)cc3)o2)cc1 | inconclusive: 26.7% |
| C[C@@H]1CCCCO[C@H](CN(C)C(=O)Cc2ccccc2)[C@@H](C)CN([C@H](C)CO)C(=O)c2cc(NC(=O)c3ccccc3)ccc2O1 | inactive: -1.5% |
| Cc1ccc(-c2cnc3c(c2)C(=O)N([C@H](C)CO)C[C@@H](C)[C@@H](CN(C)Cc2ccccc2F)O3)cc1 | inactive: 21.8% |
| CC(=O)Nc1cccc(-c2csc(C(C)(O)c3ccccc3)n2)c1 (configuration not stated) | inconclusive: 64.1% |
| COc1ccccc1NC(=O)C(=O)N(c1cccnc1)C(C(=O)NC(C)(C)C)c1ccccc1 (configuration not stated) | inconclusive: 28.7% |
| CN(N=Nc1nc[nH]c1C(=O)NN)C1CCCCC1 | inconclusive: 27.3% |
| CC(CC(=O)O)CC(=O)N1CCN(S(=O)(=O)c2cccs2)CC1 (configuration not stated) | inconclusive: 35.9% |
| c1ccc2c(C(c3nnnn3-c3ccc4c(c3)OCCO4)N3CCCCC3)ccnc2c1 (configuration not stated) | inconclusive: 36.7% |
| COCC(=O)N(C)C[C@H]1Oc2cc(-c3ccc(OC)cc3)ccc2S(=O)(=O)N([C@H](C)CO)C[C@@H]1C | inactive: 1.79% |
| Cc1ccc(S(=O)(=O)N(C)c2ccc(OC(=O)c3cccs3)cc2)cc1C | inactive: -3.13% |
| COc1ccc(Cl)cc1Nc1nnc(-c2ccncc2)s1 | inconclusive: 24.9% |
| Cc1ccc(S(=O)(=O)N(CCc2ccccc2)c2ccc3c(c2)C2CC3CCN2C(=O)OCc2ccccc2)cc1 (configuration not stated) | inactive: -3.72% |
| COc1cccc(/C=C/C(=O)Nc2ccc3nc4n(c(=O)c3c2)CCCC4)c1OC | inconclusive: 20.4% |
| CCOc1ccc(-c2cccc(NC(=O)c3cccs3)c2)nn1 | inconclusive: 65.6% |

3 entries from above, sorted by SMILES length, smallest number first:

| Compound | CPE inhibition |
| --- | --- |
| COc1ccc(Cl)cc1Nc1nnc(-c2ccncc2)s1 | inconclusive: 24.9% |
| CC(CC(=O)O)CC(=O)N1CCN(S(=O)(=O)c2cccs2)CC1 (configuration not stated) | inconclusive: 35.9% |
| Cc1ccc(S(=O)(=O)N(C)c2ccc(OC(=O)c3cccs3)cc2)cc1C | inactive: -3.13% |

Next structures follow:

| Compound | CPE inhibition |
| --- | --- |
| CCOC(=O)[C@]12CCC=C1N(Cc1ccccc1)C(=O)[C@H](CC(=O)NCCC(C)C)C2 | inactive: -13.4% |
| COc1ccccc1CNC(=O)C[C@H]1C[C@H]2c3cc(NC(=O)C4CCC4)ccc3O[C@H]2[C@H](CO)O1 | inconclusive: 26.3% |
| COc1cccc(-c2ccc3c(c2)[C@@H]2[C@@H](CCN2S(=O)(=O)c2cn(C)cn2)[C@@H](CO)N3)c1 | active: 35.1% |
| Cc1noc(C)c1NC(=O)Nc1ccc2c(c1)C(=O)N([C@H](C)CO)C[C@H](C)[C@H](CN(C)C(=O)Nc1c(C)noc1C)O2 | inconclusive: 44.9% |
| CC(=O)Nc1ncnc2c1c(-c1ccc(Cl)cc1)nn2C(C)(C)C | inconclusive: 26.8% |
| COc1ccccc1CN(C)C(C)C(=O)Nc1cccc(C(C)=O)c1 (configuration not stated) | inactive: 5.61% |
| COc1ccc2c(c1)cc1c(=O)n(CC(=O)NCCCN3CCOCC3)nc(C)n12 | inconclusive: 24.4% |
| CC(C)NC(=O)Nc1cccc2c1O[C@@H](CN(C)C(=O)NC(C)C)[C@@H](C)CN([C@@H](C)CO)C2=O | active: 65.9% |
| C[C@H](CO)N1C[C@H](C)[C@@H](CN(C)S(=O)(=O)c2ccccc2)OCc2cnnn2CCCC1=O | inconclusive: 29.2% |
| COc1c2c(c(CCC(=O)O)c3c1C=CC(C)(C)O3)OC(C)(C)C=C2 | inconclusive: 45% |
| CN(C)CC(=O)N[C@@H]1CC[C@H](CC(=O)NCc2ccccc2F)O[C@H]1CO | inactive: -3.94% |
| CN(CCc1cn[nH]c1)C(=O)C1CCC(=O)N(CC2CCCCC2)C1 (configuration not stated) | inconclusive: 23.9% |
| Cc1noc(C)c1NC(=O)N(C)C[C@H]1OCc2cnnn2CCCC(=O)N([C@@H](C)CO)C[C@@H]1C | inactive: 0.687% |
| CC(=O)c1ccc(NS(=O)(=O)c2cccc3cccnc23)cc1 | inconclusive: 33.6% |
| Cc1ccc(-c2cc(-c3ccc(C)cc3O)[nH]n2)cc1 | inactive: 0.682% |
| CN1CCN(C(=O)C[C@@H]2CC[C@H]3[C@H](COc4ccc(NC(=O)C5CCCC5)cc4C(=O)N3C)O2)CC1 | active: 25.3% |
| CN1CCN(C(=S)Nc2ccc(Cl)c(Cl)c2)CC1 | active: 77.7% |
| C[C@H]1CCCCO[C@H](CN(C)C(=O)CCCN(C)C)[C@@H](C)CN([C@@H](C)CO)C(=O)c2cc(N(C)C)ccc2O1 | inconclusive: 61.8% |
